Experimental findings from paper PMC8917221 are described below.

No constants are given. Whether binding was seen depends on the method and setting. Binding seen in cells or lysates may run through a third protein. These calls come from enrichment with a bait or labelling near it, and not all partners need be listed. For part of these data: A no says only that the protein was not detected with the bait.

The target in assay [1] is Bmc1 PrA (S. pombe Bin3/MePCE homolog Bmc1, protein A-tagged at the genomic locus) (S. pombe). The assay can be described thus: affinity purification with mass spectrometry; Bmc1 PrA immunoprecipitated from S. pombe native protein extract on rabbit IgG Dynabeads; eluted with 0.5 M NH4OH, tryptic digest, LC-MS/MS; untagged control.
The target is the same in assay [2]. The assay is described as follows: affinity purification with mass spectrometry; as a1, but the native protein extract pre-treated with 0.625 U/μL benzonase at 37 °C for 30 min.

B1: Tgs1 (TMG capping enzyme) (enzyme, UniProt Q09814 1-239)
chain: MNKNEELDEDELLKKCIICPPVPKALKKYWNNRYNLFSRFDEGIWLDYQSWYSVTPEKVAVAIAKSVVDFIQPELIIDAFSGCGGNTIQFAKYCPVISIEIDPIKIAMAKHNLEIYGIPSSRVTFIQGDVLDTFKSLQFAKDYRSLVFMSPPWGGPSYSGKTVYSLNDLNPYAFDVLFKEATRISPYVAAFLPRNTDVKELAAYGSIHNKPYITNFLFEGYAKAICCYFNMKGAIARKI
Turning to B1, in assay [1], the binding result was “no binding”.

B2: Pof8 (LARP7 family member), endogenous, found by mass spectrometry (protein, UniProt O13795 1-402)
chain: MFVPRQLNVRKIKAFTGKENNSIADGNNNKLKDEHYKHNEASKEPSHSISGGLMLNQQDRQLIEPLNPDFLSAVDSILEIYFHRERQKEKVHLAFLIQQDDFWKGIRPNPTQNNLKYALSYVTNALFHFDNSSHMVIRNENIVLPLDIPLYDRIIYVEPVPATLSNKSLLLAGKLRKYLKEFLPYVDAIGTPEGYAFVILYKKVDQSALSKLPVPPGWVLLTRKEWTNREEKYFENQLHLVKASSSDVSNSSNSFPENRYPKLTKVEKQMTKSVSKTSQTDKDEDNLDFTKNLLTRIKNLHPLTNKSTIHSLLSYVFSRQTQNIACEPMYIDYRKDETEAIIRWKTPLHAETCINAFRTQERKQNSHDDIRAHRKKGSSRPFLIAELITGEEEKNYWRMLKK
B2: the binding entry in assay [1] and in assay [2] was “binds” in each case.
